# Data from PubChem BioAssay (EPA / NIEHS).
# Chains of the proteins cited; added tags and fusions are not shown. Lines headed by an entry give the natural chain unless they say otherwise; changes in a name come on top.
# UniProt P08219: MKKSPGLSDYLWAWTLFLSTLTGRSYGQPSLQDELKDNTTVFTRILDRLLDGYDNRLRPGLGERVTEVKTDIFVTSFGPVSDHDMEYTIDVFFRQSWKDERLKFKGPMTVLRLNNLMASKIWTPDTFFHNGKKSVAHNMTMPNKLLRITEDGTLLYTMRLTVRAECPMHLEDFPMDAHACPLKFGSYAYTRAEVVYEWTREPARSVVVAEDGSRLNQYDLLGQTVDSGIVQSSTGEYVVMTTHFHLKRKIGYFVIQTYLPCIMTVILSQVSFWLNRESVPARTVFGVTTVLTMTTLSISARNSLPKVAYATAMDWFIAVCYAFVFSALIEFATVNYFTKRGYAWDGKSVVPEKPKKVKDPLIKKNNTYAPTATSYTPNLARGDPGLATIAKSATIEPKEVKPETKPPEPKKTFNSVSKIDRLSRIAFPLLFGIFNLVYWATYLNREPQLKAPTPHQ
# UniProt P03372, whole entry, looked up: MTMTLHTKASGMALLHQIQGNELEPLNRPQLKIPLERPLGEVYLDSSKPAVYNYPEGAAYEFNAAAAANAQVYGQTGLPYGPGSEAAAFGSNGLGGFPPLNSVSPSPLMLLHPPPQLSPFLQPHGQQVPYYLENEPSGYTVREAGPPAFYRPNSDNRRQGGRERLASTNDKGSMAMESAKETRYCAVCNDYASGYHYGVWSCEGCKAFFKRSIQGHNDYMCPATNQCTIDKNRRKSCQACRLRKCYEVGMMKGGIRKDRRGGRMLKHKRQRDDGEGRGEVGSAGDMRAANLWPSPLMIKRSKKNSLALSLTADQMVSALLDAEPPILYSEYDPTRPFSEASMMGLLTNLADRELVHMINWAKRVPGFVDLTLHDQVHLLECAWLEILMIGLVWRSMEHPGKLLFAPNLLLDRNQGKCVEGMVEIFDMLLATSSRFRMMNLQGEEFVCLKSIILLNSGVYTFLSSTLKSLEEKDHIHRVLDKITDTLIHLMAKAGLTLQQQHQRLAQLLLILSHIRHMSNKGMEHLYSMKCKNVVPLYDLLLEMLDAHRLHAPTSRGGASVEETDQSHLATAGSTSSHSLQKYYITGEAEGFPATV
# UniProt Q92731, whole entry, looked up: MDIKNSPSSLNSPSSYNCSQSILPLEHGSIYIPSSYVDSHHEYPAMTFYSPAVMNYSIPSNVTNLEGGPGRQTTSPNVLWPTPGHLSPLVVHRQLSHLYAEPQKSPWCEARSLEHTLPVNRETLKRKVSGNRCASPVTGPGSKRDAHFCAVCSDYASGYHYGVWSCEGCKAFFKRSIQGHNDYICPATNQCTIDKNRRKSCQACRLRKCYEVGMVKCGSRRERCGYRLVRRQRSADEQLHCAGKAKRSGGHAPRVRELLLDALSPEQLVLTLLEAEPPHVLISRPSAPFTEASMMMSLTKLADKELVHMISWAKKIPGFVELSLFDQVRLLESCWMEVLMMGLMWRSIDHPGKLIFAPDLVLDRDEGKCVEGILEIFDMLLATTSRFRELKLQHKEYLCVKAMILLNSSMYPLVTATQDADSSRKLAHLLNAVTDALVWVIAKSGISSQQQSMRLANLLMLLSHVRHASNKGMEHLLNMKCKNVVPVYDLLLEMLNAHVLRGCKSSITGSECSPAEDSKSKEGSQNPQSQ
# UniProt P10275: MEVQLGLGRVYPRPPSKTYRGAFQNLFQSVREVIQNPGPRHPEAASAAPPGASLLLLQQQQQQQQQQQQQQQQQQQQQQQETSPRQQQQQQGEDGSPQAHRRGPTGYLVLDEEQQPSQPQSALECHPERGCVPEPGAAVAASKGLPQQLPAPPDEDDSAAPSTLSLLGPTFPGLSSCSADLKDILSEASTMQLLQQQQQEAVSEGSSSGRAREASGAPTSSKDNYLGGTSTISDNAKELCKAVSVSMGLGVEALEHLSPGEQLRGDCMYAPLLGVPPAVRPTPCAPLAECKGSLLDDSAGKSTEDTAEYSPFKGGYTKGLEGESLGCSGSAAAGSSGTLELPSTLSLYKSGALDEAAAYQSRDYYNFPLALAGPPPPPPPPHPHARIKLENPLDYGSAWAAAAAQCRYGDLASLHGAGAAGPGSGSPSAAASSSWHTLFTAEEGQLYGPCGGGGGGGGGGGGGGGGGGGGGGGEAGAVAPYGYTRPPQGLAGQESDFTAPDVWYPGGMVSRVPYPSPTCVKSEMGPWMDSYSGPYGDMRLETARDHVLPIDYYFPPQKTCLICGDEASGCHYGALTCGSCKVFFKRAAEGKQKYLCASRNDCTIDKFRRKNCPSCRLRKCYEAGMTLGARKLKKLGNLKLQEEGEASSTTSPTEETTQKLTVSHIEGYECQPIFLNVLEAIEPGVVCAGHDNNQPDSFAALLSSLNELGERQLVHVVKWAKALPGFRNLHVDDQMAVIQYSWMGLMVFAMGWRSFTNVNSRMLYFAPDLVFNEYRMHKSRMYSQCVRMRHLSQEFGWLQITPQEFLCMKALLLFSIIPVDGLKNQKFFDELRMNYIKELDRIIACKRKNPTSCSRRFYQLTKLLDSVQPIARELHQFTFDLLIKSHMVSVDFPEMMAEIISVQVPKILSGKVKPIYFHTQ
# UniProt P22909, whole entry, looked up: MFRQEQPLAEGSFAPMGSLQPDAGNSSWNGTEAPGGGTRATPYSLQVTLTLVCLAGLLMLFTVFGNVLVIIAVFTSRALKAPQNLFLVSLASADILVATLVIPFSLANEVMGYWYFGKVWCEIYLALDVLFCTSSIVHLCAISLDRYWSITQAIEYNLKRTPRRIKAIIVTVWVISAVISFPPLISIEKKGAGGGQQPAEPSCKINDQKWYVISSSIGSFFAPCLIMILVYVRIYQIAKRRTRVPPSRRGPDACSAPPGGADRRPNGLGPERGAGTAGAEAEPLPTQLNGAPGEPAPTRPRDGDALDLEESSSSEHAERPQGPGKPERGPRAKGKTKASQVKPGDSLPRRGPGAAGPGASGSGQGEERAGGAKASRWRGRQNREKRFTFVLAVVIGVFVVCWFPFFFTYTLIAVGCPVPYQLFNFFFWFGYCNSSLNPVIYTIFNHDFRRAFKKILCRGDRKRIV
# UniProt P23975, whole entry, looked up: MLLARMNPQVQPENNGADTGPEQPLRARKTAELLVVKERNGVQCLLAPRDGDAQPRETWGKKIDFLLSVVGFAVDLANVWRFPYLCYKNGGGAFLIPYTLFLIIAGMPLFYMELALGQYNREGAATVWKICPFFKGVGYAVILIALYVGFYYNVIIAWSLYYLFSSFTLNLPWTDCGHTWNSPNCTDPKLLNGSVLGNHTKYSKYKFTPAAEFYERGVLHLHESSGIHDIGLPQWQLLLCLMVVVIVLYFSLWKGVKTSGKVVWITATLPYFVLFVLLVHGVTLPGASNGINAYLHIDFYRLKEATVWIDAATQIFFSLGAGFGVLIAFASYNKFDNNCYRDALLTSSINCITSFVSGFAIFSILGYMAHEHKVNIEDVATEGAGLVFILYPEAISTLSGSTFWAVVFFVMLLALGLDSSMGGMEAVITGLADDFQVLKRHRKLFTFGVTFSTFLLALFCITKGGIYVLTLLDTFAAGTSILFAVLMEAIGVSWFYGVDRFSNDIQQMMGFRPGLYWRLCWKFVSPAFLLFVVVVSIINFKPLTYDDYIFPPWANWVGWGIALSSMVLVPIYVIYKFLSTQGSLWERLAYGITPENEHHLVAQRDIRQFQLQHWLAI
# UniProt Q12809: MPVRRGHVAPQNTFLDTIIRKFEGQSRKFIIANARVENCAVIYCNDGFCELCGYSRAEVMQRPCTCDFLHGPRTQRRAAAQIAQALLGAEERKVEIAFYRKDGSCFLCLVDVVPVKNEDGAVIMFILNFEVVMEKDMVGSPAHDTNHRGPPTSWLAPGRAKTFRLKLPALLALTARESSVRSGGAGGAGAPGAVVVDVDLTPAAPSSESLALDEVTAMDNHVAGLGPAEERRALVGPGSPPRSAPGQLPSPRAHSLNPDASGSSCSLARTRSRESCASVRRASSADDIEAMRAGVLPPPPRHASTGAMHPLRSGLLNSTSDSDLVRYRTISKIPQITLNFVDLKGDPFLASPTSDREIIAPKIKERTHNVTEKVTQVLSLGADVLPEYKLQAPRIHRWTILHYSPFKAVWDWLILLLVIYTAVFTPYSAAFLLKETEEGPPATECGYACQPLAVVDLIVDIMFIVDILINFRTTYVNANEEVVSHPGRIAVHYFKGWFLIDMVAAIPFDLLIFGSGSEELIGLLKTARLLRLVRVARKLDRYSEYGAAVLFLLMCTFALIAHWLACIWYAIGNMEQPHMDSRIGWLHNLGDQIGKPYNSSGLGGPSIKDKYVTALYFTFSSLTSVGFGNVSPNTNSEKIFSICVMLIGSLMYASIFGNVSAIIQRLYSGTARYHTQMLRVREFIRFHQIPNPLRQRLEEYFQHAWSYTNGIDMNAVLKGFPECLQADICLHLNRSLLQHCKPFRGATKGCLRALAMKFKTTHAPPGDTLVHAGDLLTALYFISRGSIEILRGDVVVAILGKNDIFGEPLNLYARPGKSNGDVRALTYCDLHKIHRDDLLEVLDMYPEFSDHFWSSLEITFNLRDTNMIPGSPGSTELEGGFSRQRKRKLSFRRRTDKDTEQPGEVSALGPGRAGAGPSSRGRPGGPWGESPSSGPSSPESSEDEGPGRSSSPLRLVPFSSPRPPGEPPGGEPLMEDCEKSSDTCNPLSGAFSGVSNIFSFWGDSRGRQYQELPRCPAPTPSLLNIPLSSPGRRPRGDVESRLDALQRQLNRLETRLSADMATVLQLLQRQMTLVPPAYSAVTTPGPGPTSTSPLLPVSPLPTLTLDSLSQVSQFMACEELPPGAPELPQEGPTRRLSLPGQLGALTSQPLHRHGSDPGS
# UniProt Q08E50: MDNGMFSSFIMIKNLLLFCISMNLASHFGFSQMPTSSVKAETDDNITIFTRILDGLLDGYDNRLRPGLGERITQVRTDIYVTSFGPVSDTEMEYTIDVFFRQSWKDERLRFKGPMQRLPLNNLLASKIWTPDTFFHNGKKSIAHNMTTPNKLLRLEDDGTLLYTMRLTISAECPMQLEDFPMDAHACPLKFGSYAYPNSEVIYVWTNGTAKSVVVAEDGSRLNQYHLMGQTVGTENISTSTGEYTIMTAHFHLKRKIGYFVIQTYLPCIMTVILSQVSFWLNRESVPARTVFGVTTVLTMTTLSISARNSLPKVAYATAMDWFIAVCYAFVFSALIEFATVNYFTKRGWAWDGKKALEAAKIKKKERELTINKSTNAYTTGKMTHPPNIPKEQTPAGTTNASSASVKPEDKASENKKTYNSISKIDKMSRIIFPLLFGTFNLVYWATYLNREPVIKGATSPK
# UniProt P22303: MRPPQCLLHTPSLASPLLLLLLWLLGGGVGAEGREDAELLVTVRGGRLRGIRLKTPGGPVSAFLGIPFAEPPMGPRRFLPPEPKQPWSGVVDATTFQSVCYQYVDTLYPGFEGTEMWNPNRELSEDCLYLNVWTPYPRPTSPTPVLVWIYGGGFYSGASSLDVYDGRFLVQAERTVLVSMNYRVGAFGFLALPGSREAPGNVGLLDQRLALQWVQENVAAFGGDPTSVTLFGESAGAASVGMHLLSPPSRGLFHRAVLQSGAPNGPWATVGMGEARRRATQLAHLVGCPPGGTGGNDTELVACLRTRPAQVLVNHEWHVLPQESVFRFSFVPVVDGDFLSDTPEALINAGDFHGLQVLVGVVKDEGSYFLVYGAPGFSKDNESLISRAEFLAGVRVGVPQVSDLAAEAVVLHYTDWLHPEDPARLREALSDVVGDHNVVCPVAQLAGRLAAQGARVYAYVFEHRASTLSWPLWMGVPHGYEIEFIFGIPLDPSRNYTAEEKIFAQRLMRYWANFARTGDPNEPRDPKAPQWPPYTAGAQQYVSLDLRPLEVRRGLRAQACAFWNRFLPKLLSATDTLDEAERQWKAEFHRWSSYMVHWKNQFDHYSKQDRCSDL
# UniProt Q96RI1: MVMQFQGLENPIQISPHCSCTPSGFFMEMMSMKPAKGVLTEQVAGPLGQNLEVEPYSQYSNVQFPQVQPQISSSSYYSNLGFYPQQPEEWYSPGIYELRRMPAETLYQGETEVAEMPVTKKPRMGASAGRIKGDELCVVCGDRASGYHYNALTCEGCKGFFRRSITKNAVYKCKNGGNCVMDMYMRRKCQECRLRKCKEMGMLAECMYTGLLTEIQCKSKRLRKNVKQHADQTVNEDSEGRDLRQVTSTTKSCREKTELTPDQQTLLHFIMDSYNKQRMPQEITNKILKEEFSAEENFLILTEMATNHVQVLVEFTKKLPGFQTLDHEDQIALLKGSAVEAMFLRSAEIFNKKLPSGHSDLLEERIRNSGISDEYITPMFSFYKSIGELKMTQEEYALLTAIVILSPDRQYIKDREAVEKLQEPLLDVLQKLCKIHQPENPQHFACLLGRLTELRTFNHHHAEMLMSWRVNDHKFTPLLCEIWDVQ
# For some assays here: Shown are results outside the selection of hits, which stands elsewhere. Records with an inconclusive call do not appear. This is a selection; strong and weak results do not stand in their true shares. Calls of active or inactive are those of the source. Rule for the calls, unless noted: active = hit-call score of the fitted dose curve at least 0.9, where 1 is the maximum; inconclusive = response in the unintended direction; inactive = score below 0.9.
# Columns and labels:
# [1] = target: bovine Gamma-Aminobutyric Acid Type A Receptor BDZ, alpha 1 site (GABARa1), GABRA1 (gene 780973) (UniProt P08219); test: NVS_LGIC_bGABARa1: NovaScreen (NVS) Ligand-Gated Ion Channel Assay for bovine Gamma-Aminobutyric Acid Type A Receptor BDZ, alpha 1 site (GABARa1) (AID 2283321)
# Outline: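 Bovine cortex membrane preparation, benzodiazepine site on GABA-A alpha1; specific radioligand displacement read after 0.75 h by filtration and scintillation. Screen at 25 uM, then singleton titrations up to 50 uM; DMSO baseline.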
# [2] = target: Estrogen receptor (Homo sapiens) (UniProt P03372); test: OT_ER_ERaERa_1440: Odyssey Thera (OT) 24-hour HEK293T Protein-Complementation Assay for Estrogen Receptor-alpha/-alpha Homodimer (AID 2283349);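 note: hits raise fluorescence above DMSO for agonists and antagonists alike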
# Outline: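 Cells (HEK293T) carrying the fragment-tagged ERα LBD (aa 310-547) pair are treated with chemical for 24 hours. Nuclear and/or cytoplasmic fluorescence is then quantified on a laser scanning cytometer. Activity is scored as signal gain against DMSO.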
# [3] = target: Estrogen receptor (Homo sapiens) + Estrogen receptor beta (Homo sapiens) (UniProt P03372+Q92731); test: OT_ER_ERaERb_0480: Odyssey Thera (OT) 8-hour HEK293T Protein-Complementation Assay for Estrogen Receptor-alpha/-beta Heterodimer (AID 2283352)
# Outline: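 Fluorescence intensity readout from a protein-fragment complementation reporter in HEK293T; ER-alpha/ER-beta LBD heterodimer. Dosing 8 h. Gain-of-signal fit relative to DMSO negative control; laser scanning cytometry of whole-well cell population.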
# [4] = test system: rat Monoamine Oxidase, MAO-A, Central (MAOAC), gene 29253; test: NVS_ENZ_rMAOAC: NovaScreen (NVS) Enzymatic Assay for rat Monoamine Oxidase, MAO-A, Central (MAOAC) (AID 2283243);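 note: potency refers to inhibition seen as signal drop below DMSO baseline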
# [5] = target: Agonist Androgen Response Element (ARE), AR (gene 367) (UniProt P10275); test: OT_AR_ARELUC_AG_1440: Odyssey Thera (OT) 24-hour CHO-K1 Luciferase Assay for Agonist Androgen Response Element (ARE) (AID 2283379)
# Outline: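 Gain-of-signal reporter endpoint: cells (CHO-K1, hamster) are treated 24 h, luciferin/ATP reagent added, and luminescence compared with DMSO baseline.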
# [6] = target: rat Adrenergic Receptor, Alpha 2 (Adra2), Non-selective Binding, Adra2a (gene 25083) (UniProt P22909); test: NVS_GPCR_rAdra2_NonSelective: NovaScreen (NVS) G Protein-Coupled Receptor Assay for rat Adrenergic Receptor, Alpha 2 (Adra2), Non-selective Binding (AID 2283299)
# Outline: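 Filter-based scintillation counting of radioligand binding to rat cortical membrane receptors, measured 1.25 hours post-dosing; loss of signal versus DMSO indicates displacement. Initial single-concentration duplicate at 25 uM, then concentration series.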
# [7] = target: human Norepinephrine Transporter (NET), SLC6A2 (gene 6530) (UniProt P23975); test: NVS_TR_hNET: NovaScreen (NVS) Transporter Assay for human Norepinephrine Transporter (NET) (AID 2283377);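 note: cell-free membrane protein extracted from CHO cells expressing human NET; displacement of radioligand from human NET seen as loss of scintillation signal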
# Outline: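 CHO cell extracts expressing the transporter; tritiated or iodinated tracer displaced competitively; filtration plus scintillation readout at 1 h. Single-point duplicates at 25 uM, concentration series for follow-up; activity = signal drop relative to DMSO.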
# [8] = target: Voltage-gated inwardly rectifying potassium channel KCNH2 (Homo sapiens) (UniProt Q12809); test: NVS_IC_hKhERGCh: NovaScreen (NVS) Ion Channel Assay for human Potassium Channel ERG (KhERGCh) (AID 2283333)
# Procedure: NVS_IC_hKhERGCh is a biochemical, single-readout assay that uses extracted gene-proteins from CHO in a cell-free assay. Measurements were taken 0.75 hour after chemical dosing in a 48-well plate.NVS_IC_hKhERGCh is one of one assay component(s) measured or calculated from the NVS_IC_hKhERGCh assay. It is designed to make measurements of radioligand binding, a form of binding reporter, as detected with scintillation counting signals by Filter-based radiodetection technology.Data from the assay component NVS_IC_hKhERGCh was analyzed into 1 assay endpoint. This assay endpoint, NVS_IC_hKhERGCh, was analyzed in the positive analysis fitting direction relative to DMSO as the negative control and baseline of activity. […] Furthermore, this assay endpoint can be referred to as a primary readout, because the performed assay has only produced 1 assay endpoint. […]
# Binding assays used specific radioligands (tritiated, iodinated) with non-radioactive competitive displacement ligands in agonist or antagonist protocols (as indicated) and various reference compounds and inhibitors to titrate specific binding to receptors and transporters. Most enzyme assays (CYPs, kinases, phosphatases, proteases, HDACs) used recombinant protein and specific substrates (fluorescence mostly, some colorimetric and radioactive) and inhibitors, followed by a biochemical separation of substrate and product. […]
# [9] = read-out: Fatty acid synthase (Homo sapiens) (UniProt P49327); test: LTEA_HepaRG_FASN: Life Technologies and Expression Analysis (LTEA) Assay for Fatty Acid Synthase (FASN) using HepaRG (AID 2283448; active = hit-call score of the fitted dose curve at least 0.9, where 1 is the maximum; inactive = score below 0.9); details: actives raise or lower the signal; mRNA level, 48 h
# Outline: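 HepaRG, 48 h exposure, 8-pt half-log series top 100 uM, 0.5% DMSO vehicle, duplicates. Readout: FASN transcript by Fluidigm qRT-PCR; housekeeping-normalized; bidirectional curve fit vs DMSO baseline.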
# [10] = read-out: Forkhead box O3 (FOXO3), FOXO3 (gene 2309); test: LTEA_HepaRG_FOXO3: Life Technologies and Expression Analysis (LTEA) Assay for Forkhead box O3 (FOXO3) using HepaRG (AID 2283459; active = hit-call score of the fitted dose curve at least 0.9, where 1 is the maximum; inactive = score below 0.9); details: actives raise or lower the signal; mRNA level, 48 h
# Outline: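 qRT-PCR readout of FOXO3 transcript, normalized to three housekeeping genes (ACTB, GAPDH, POLR2A); gain or loss fitted against 0.5% DMSO vehicle. HepaRG cells, 48 h chemical exposure, 8-point half-log series, top 100 uM.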
# [11] = read-out: UDP glucuronosyltransferase (UGT1A1), UGT1A1 (gene 54658); test: LTEA_HepaRG_UGT1A1: Life Technologies and Expression Analysis (LTEA) Assay for UDP glucuronosyltransferase (UGT1A1) using HepaRG (AID 2283538; active = hit-call score of the fitted dose curve at least 0.9, where 1 is the maximum; inactive = score below 0.9); details: actives raise or lower the signal; mRNA level, 48 h
# Outline: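 HepaRG, 48 h chemical exposure (top 100 uM, half-log 8-pt, 0.5% DMSO vehicle), duplicate wells; qRT-PCR (TaqMan, Fluidigm array) for UGT1A1 mRNA, housekeeping-normalized; bidirectional curve fit vs DMSO baseline.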
# [12] = target: bovine Gamma-Aminobutyric Acid Type A Receptor BDZ, alpha 5 site (GABARa5), GABRA5 (gene 523515) (UniProt Q08E50); test: NVS_LGIC_bGABARa5: NovaScreen (NVS) Ligand-Gated Ion Channel Assay for bovine Gamma-Aminobutyric Acid Type A Receptor BDZ, alpha 5 site (GABARa5) (AID 2283323)
# Outline: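 Tested first in duplicate at a single 25 uM, with hits re-run in concentration series to a 50 uM maximum. Bovine hippocampal membranes; specific radioligand displacement measured by filter scintillation counting 1 hr post-dose.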
# [13] = read-out: MicroRNA 122 (MIR122), gene 406906; test: LTEA_HepaRG_MIR122: Life Technologies and Expression Analysis (LTEA) Assay for MicroRNA 122 (MIR122) using HepaRG (AID 2283516; active = hit-call score of the fitted dose curve at least 0.9, where 1 is the maximum; inactive = score below 0.9; note: the transcript read is the microRNA miR-122); details: actives raise or lower the signal; mRNA level, 48 h
# Outline: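 qRT-PCR read-out (TaqMan, Fluidigm array), normalized to three housekeeping genes; HepaRG cells dosed 48 h at 8 concentrations up to 100 uM in 0.5% DMSO, duplicate; gain or loss fitted against DMSO baseline.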
# [14] = read-out: sulfotransferase 2A1 (SULT2A1), SULT2A1 (gene 6822); test: LTEA_HepaRG_SULT2A1: Life Technologies and Expression Analysis (LTEA) Assay for sulfotransferase 2A1 (SULT2A1) using HepaRG (AID 2283531; active = hit-call score of the fitted dose curve at least 0.9, where 1 is the maximum; inactive = score below 0.9); details: actives raise or lower the signal; mRNA level, 48 h
# Outline: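 HepaRG, 48 h chemical exposure, 8-pt half-log curve from 100 uM in 0.5% DMSO, duplicates. Readout: TaqMan qRT-PCR of SULT2A1 mRNA, housekeeping-normalized. Bidirectional fit vs DMSO baseline.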
# [15] = target: human Acetylcholinesterase (AChE), ACHE (gene 43) (UniProt P22303); test: NVS_ENZ_hAChE: NovaScreen (NVS) Enzymatic Assay for human Acetylcholinesterase (AChE) (AID 2283129)
# Outline: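 Actives from a duplicate single-point screen (25 uM) were followed up in concentration series. Enzyme activity read by absorbance (colorimetric) 0.33 hour after dosing, cell-free, normalized to DMSO, with loss of signal scored.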
# [16] = target: Bile acid receptor (Homo sapiens) (UniProt Q96RI1); test: NVS_NR_hFXR_Antagonist: NovaScreen (NVS) Nuclear Receptor Binding Assay for human Farnesoid X Receptor Antagonism (FXR) (AID 2283350)
# Outline: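 Antagonist-format time-resolved FRET binding assay with extracted human receptor protein, read 1 hour after compound addition. Compounds first screened at 25 uM in duplicate, then actives tested in concentration series, with loss of signal relative to DMSO.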
structure (smiles),measurement,setting,value
CCCCCCCCCCCCCO,outcome,[1],inactive
FC(F)(F)c1ccc(Cl)cc1,outcome,[2],inactive
same,outcome,[3],inactive
CCCCOC(=O)c1ccc(O)cc1,AC50,[4],active: 13.3 µM
CCCCOCN(C(=O)CCl)c1c(CC)cccc1CC,outcome,[5],inactive
CCCCCCCCn1sccc1=O,AC50,[6],active: 12.6 µM
same,AC50,[7],active: 8.2 µM
CCNc1nc(NC(C)C)nc(SC)n1,AC50,[8],active: 20.2 µM
same,outcome,[9],inactive
same,outcome,[10],inactive
same,AC50,[11],active: 2.8 µM
CCCN(CCOc1c(Cl)cc(Cl)cc1Cl)C(=O)n1ccnc1,outcome,[12],inactive
N#CC(Br)Br,outcome,[3],inactive
same,outcome,[13],inactive
same,outcome,[14],inactive
CC#C[C@]1(O)CC[C@H]2[C@@H]3CCC4=CC(=O)CCC4=C3[C@@H](c3ccc(N(C)C)cc3)C[C@@]21C,AC50,[15],active: 29.9 µM
N#CCCCCC#N,outcome,[16],inactive
